Some of these results come from one statement about several compounds together. Some ranges recur; such a range may be that of the whole group of compounds.
Each compound was assayed on Green Peach Aphid (Myzus persicae) (assay: Control efficacy against green peach aphid, spray on potted Chinese cabbage). Settings: 500 ppm liquid chemical sprayed on stalks and leaves of Chinese cabbage; counted six days after the spraying.
Format: in vivo
In the case of `CC1COC(c2cncnc2OCc2ccc(C(C)(C)C)cc2)O1` (mixture of isomers) [15-13], the “insecticidal effect (control efficacy) against green peach aphid” value (“insecticidal effect (control efficacy)” for short) is reported as “D (control efficacy 79%-50%)”.
For `CC1COC(c2cncnc2OCc2ccc(F)cc2)O1` (mixture of isomers) [15-15], the “insecticidal effect (control efficacy)” value was “D (control efficacy 79%-50%)”.
With `CC1COC(c2cncnc2OCc2ccc(Cl)cc2)O1` (mixture of isomers) [15-16] the “insecticidal effect (control efficacy)” value was “D (control efficacy 79%-50%)”.
With `CC1COC(c2cncnc2OCc2ccc(Cl)c(Cl)c2)O1` (mixture of isomers) [15-17] the “insecticidal effect (control efficacy)” value was “D (control efficacy 79%-50%)”.
For `C[C@@H]1C[C@@H](C)OC(c2cncnc2OCc2ccc(C(C)(C)C)cc2)O1` (mixture of isomers) [4-28], the “insecticidal effect (control efficacy)” value was “D (control efficacy 79%-50%)”.
In the case of `CC1CCOC(c2cncnc2OCc2ccc(C(F)(F)F)cc2)O1` (single isomer, unassigned) [9-32], the “insecticidal effect (control efficacy)” value is reported as “D (control efficacy 79%-50%)”.
With `CC1COC(c2cncnc2OCc2ccc(Br)cc2)O1` (single isomer, unassigned) [15-9] the “insecticidal effect (control efficacy)” value was “D (control efficacy 79%-50%)”.
`CC1COC(c2cncnc2OCc2ccc(Br)cc2)O1` (single isomer, unassigned) [15-10] was tested, and the “insecticidal effect (control efficacy)” value was “D (control efficacy 79%-50%)”.
With `CCC1OCC(c2cncnc2OCc2ccc(C(F)(F)F)cc2)O1` (single isomer, unassigned) [15-91] the “insecticidal effect (control efficacy)” value was “D (control efficacy 79%-50%)”.
For `CCCc1cncnc1OCc1ccc(C(C)(C)C)cc1` [1-3], the “insecticidal effect (control efficacy)” value was “D (control efficacy 79%-50%)”.
`CCCCCc1cncnc1OCc1ccc(C(C)(C)C)cc1` [1-14] was tested, and the “insecticidal effect (control efficacy)” value was “D (control efficacy 79%-50%)”.
In the case of `CC(C)(C)c1ccc(COc2ncncc2C2CCCC2)cc1` [1-21], the “insecticidal effect (control efficacy)” value is reported as “D (control efficacy 79%-50%)”.
For `CC(C)(C)c1ccc(COc2ncncc2C2CCCCC2)cc1` [1-30], the “insecticidal effect (control efficacy)” value was “D (control efficacy 79%-50%)”.
With `CC(C)(C)c1ccc(COc2ncncc2CF)cc1` [1-40] the “insecticidal effect (control efficacy)” value was “D (control efficacy 79%-50%)”.
With `CON=Cc1cncnc1OCc1ccc(C(C)(C)C)cc1` [1-54] the “insecticidal effect (control efficacy)” value was “D (control efficacy 79%-50%)”.
`CCON=Cc1cncnc1OCc1ccc(C(C)(C)C)cc1` [1-55] was tested, and the “insecticidal effect (control efficacy)” value was “D (control efficacy 79%-50%)”.
In the case of `CCc1cncnc1OCc1ccc(C(F)(F)F)cc1` [2-2], the “insecticidal effect (control efficacy)” value is reported as “D (control efficacy 79%-50%)”.
In the case of `FC(F)(F)c1ccc(COc2ncncc2C2CC2)cc1` [2-5], the “insecticidal effect (control efficacy)” value is reported as “D (control efficacy 79%-50%)”.
For `CCCCCc1cncnc1OCc1ccc(C(F)(F)F)cc1` [2-14], the “insecticidal effect (control efficacy)” value was “D (control efficacy 79%-50%)”.
In the case of `FC(F)c1cncnc1OCc1ccc(C(F)(F)F)cc1` [2-41], the “insecticidal effect (control efficacy)” value is reported as “D (control efficacy 79%-50%)”.
In the case of `O=Cc1cncnc1OCc1ccc(C(F)(F)F)cc1` [2-52], the “insecticidal effect (control efficacy)” value is reported as “D (control efficacy 79%-50%)”.
With `CCON=Cc1cncnc1OCc1ccc(C(F)(F)F)cc1` [2-55] the “insecticidal effect (control efficacy)” value was “D (control efficacy 79%-50%)”.
With `OCc1cncnc1OCc1ccc(C(F)(F)F)cc1` [2-66] the “insecticidal effect (control efficacy)” value was “D (control efficacy 79%-50%)”.
In the case of `COCc1cncnc1OCc1ccc(C(F)(F)F)cc1` [2-67], the “insecticidal effect (control efficacy)” value is reported as “D (control efficacy 79%-50%)”.
For `CSCc1cncnc1OCc1ccc(C(F)(F)F)cc1` [2-73], the “insecticidal effect (control efficacy)” value was “D (control efficacy 79%-50%)”.
With `CN(C)Cc1cncnc1OCc1ccc(C(F)(F)F)cc1` [2-76] the “insecticidal effect (control efficacy)” value was “D (control efficacy 79%-50%)”.
In the case of `COC(=O)c1cncnc1OCc1ccc(C(F)(F)F)cc1` [2-87], the “insecticidal effect (control efficacy)” value is reported as “D (control efficacy 79%-50%)”.
`FC(F)(F)c1ccc(COc2ncncc2C2CCCO2)cc1` (stereo not drawn) [2-95] was tested, and the “insecticidal effect (control efficacy)” value was “D (control efficacy 79%-50%)”.
`FC(F)(F)c1ccc(COc2ncncc2C2CCCCO2)cc1` (stereo not drawn) [2-97] was tested, and the “insecticidal effect (control efficacy)” value was “D (control efficacy 79%-50%)”.
`FC(F)(F)c1ccc(COc2ncncc2Cn2cncn2)cc1` [2-108] was tested, and the “insecticidal effect (control efficacy)” value was “D (control efficacy 79%-50%)”.
For `CC(C)c1cncnc1OCc1ccc(OC(F)(F)F)cc1` [3-4], the “insecticidal effect (control efficacy)” value was “D (control efficacy 79%-50%)”.
In the case of `CC(C)CCc1cncnc1OCc1ccc(OC(F)(F)F)cc1` [3-13], the “insecticidal effect (control efficacy)” value is reported as “D (control efficacy 79%-50%)”.
In the case of `CCCCCc1cncnc1OCc1ccc(OC(F)(F)F)cc1` [3-14], the “insecticidal effect (control efficacy)” value is reported as “D (control efficacy 79%-50%)”.
`CC1(C)CC(c2cncnc2OCc2ccc(OC(F)(F)F)cc2)=NO1` [3-111] was tested, and the “insecticidal effect (control efficacy)” value was “D (control efficacy 79%-50%)”.
In the case of `CC1OC(c2cncnc2OCc2ccc(C(C)(C)C)cc2)OC1C` (stereo not drawn) [4-6], the “insecticidal effect (control efficacy)” value is reported as “D (control efficacy 79%-50%)”.
`CC1OC(c2cncnc2OCc2ccc(OC(F)(F)F)cc2)OC1C` (stereo not drawn) [4-10] was tested, and the “insecticidal effect (control efficacy)” value was “D (control efficacy 79%-50%)”.
With `C[Si](C)(C)c1ccc(COc2ncncc2C2OCCCO2)cc1` [4-18] the “insecticidal effect (control efficacy)” value was “D (control efficacy 79%-50%)”.
In the case of `FC(F)(F)Sc1ccc(COc2ncncc2C2OCCCO2)cc1` [4-21], the “insecticidal effect (control efficacy)” value is reported as “D (control efficacy 79%-50%)”.
With `Clc1ccc(COc2ncncc2C2OCCCO2)cc1` [4-22] the “insecticidal effect (control efficacy)” value was “D (control efficacy 79%-50%)”.
For `C[Si](C)(C)c1ccc(COc2ncncc2C2OCCCCO2)cc1` [4-40], the “insecticidal effect (control efficacy)” value was “D (control efficacy 79%-50%)”.
With `FC(F)(F)Oc1ccc(COc2ncncc2C2OCCCCO2)cc1` [4-42] the “insecticidal effect (control efficacy)” value was “D (control efficacy 79%-50%)”.
`COC(OC)c1cncnc1OCc1ccc(C(C)(C)C)cc1` [4-43] was tested, and the “insecticidal effect (control efficacy)” value was “D (control efficacy 79%-50%)”.
`COC(OC)c1cncnc1OCc1ccc([Si](C)(C)C)cc1` [4-45] was tested, and the “insecticidal effect (control efficacy)” value was “D (control efficacy 79%-50%)”.
In the case of `CC(C)(C)c1ccc(COc2ncncc2C2OCCS2)cc1` (stereo not drawn) [4-53], the “insecticidal effect (control efficacy)” value is reported as “D (control efficacy 79%-50%)”.
In the case of `CC(C)(C)c1ccc(COc2ncncc2C2SCCCS2)cc1` [4-68], the “insecticidal effect (control efficacy)” value is reported as “D (control efficacy 79%-50%)”.
With `FC(F)(F)c1ccc(COc2ncncc2C2SCCCS2)cc1` [4-71] the “insecticidal effect (control efficacy)” value was “D (control efficacy 79%-50%)”.
With `CCSC(SCC)c1cncnc1OCc1ccc(C(F)(F)F)cc1` [4-86] the “insecticidal effect (control efficacy)” value was “D (control efficacy 79%-50%)”.
`COC(c1cncnc1OCc1ccc(C(F)(F)F)cc1)n1cncn1` (stereo not drawn) [4-88] was tested, and the “insecticidal effect (control efficacy)” value was “D (control efficacy 79%-50%)”.
`COC(c1cncnc1OCc1ccc(C(F)(F)F)cc1)n1cccn1` (stereo not drawn) [4-89] was tested, and the “insecticidal effect (control efficacy)” value was “D (control efficacy 79%-50%)”.
`FC(F)(F)C(Oc1ncncc1C1CCCCC1)c1ccccc1` (stereo not drawn) [5-1] was tested, and the “insecticidal effect (control efficacy)” value was “D (control efficacy 79%-50%)”.
In the case of `CC(C)(C)c1ccc(C(Oc2ncncc2C2CCCCC2)C(F)(F)F)cc1` (stereo not drawn) [5-2], the “insecticidal effect (control efficacy)” value is reported as “D (control efficacy 79%-50%)”.
For `CC(C)(C)c1ccc(COc2ncncc2Cc2ccccc2)cc1` [8-2], the “insecticidal effect (control efficacy)” value was “D (control efficacy 79%-50%)”.
In the case of `C#CCON=Cc1cncnc1OCc1ccc(C(F)(F)F)cc1` [8-5], the “insecticidal effect (control efficacy)” value is reported as “D (control efficacy 79%-50%)”.
In the case of `CCON=C(C)c1cncnc1OCc1ccc(C(F)(F)F)cc1` [8-9], the “insecticidal effect (control efficacy)” value is reported as “D (control efficacy 79%-50%)”.
In the case of `CC(C)(C)c1ccc(COc2ncncc2C=Nc2cccnc2)cc1` [8-10], the “insecticidal effect (control efficacy)” value is reported as “D (control efficacy 79%-50%)”.
With `FC(F)(F)c1ccc(COc2ncncc2CCSc2ccccc2)cc1` [8-15] the “insecticidal effect (control efficacy)” value was “D (control efficacy 79%-50%)”.
In the case of `[O-][S+](CCc1cncnc1OCc1ccc(C(F)(F)F)cc1)c1ccccc1` (stereo not drawn) [8-16], the “insecticidal effect (control efficacy)” value is reported as “D (control efficacy 79%-50%)”.
For `O=S(=O)(CCc1cncnc1OCc1ccc(C(F)(F)F)cc1)c1ccccc1` [8-17], the “insecticidal effect (control efficacy)” value was “D (control efficacy 79%-50%)”.
For `CCOCCc1cncnc1OCc1ccc(C(C)(C)C)cc1` [8-20], the “insecticidal effect (control efficacy)” value was “D (control efficacy 79%-50%)”.
For `CCOCCc1cncnc1OCc1ccc(C(F)(F)F)cc1` [8-23], the “insecticidal effect (control efficacy)” value was “D (control efficacy 79%-50%)”.
With `CCOCCc1cncnc1OCc1ccc(OC(F)(F)F)cc1` [8-24] the “insecticidal effect (control efficacy)” value was “D (control efficacy 79%-50%)”.
With `COCC#Cc1cncnc1OCc1ccc(C(F)(F)F)cc1` [8-29] the “insecticidal effect (control efficacy)” value was “D (control efficacy 79%-50%)”.
In the case of `FC(F)(F)c1ccc(COc2ncncc2C2=CCOCC2)cc1` [8-34], the “insecticidal effect (control efficacy)” value is reported as “D (control efficacy 79%-50%)”.
`Cn1cc(-c2cncnc2OCc2ccc(C(F)(F)F)cc2)cn1` [8-35] was tested, and the “insecticidal effect (control efficacy)” value was “D (control efficacy 79%-50%)”.
For `O=C(NCCO)c1cncnc1OCc1ccc(C(F)(F)F)cc1` [8-40], the “insecticidal effect (control efficacy)” value was “D (control efficacy 79%-50%)”.
`CSCCc1cncnc1OCc1ccc(C(F)(F)F)cc1` [8-52] was tested, and the “insecticidal effect (control efficacy)” value was “D (control efficacy 79%-50%)”.
`CNCc1cncnc1OCc1ccc([Si](C)(C)C)cc1` [8-53] was tested, and the “insecticidal effect (control efficacy)” value was “D (control efficacy 79%-50%)”.
With `CC(C)(O)c1cncnc1OCc1ccc(C(F)(F)F)cc1` [8-54] the “insecticidal effect (control efficacy)” value was “D (control efficacy 79%-50%)”.
In the case of `CCc1cncnc1OCc1ccc(-c2ccc(OC(F)(F)F)cc2)cc1` [8-58], the “insecticidal effect (control efficacy)” value is reported as “D (control efficacy 79%-50%)”.
In the case of `Fc1ccc(-c2cncnc2OCc2ccc(C(F)(F)F)cc2)cc1` [8-60], the “insecticidal effect (control efficacy)” value is reported as “D (control efficacy 79%-50%)”.
`CCCC#Cc1cncnc1OCc1ccc(C(F)(F)F)cc1` [8-64] was tested, and the “insecticidal effect (control efficacy)” value was “D (control efficacy 79%-50%)”.
`CCC(C)c1ccc(COc2ncncc2C2OCCCO2)cc1` (stereo not drawn) [9-2] was tested, and the “insecticidal effect (control efficacy)” value was “D (control efficacy 79%-50%)”.

— patent US9750252B2, “Arylalkyloxy pyrimidine derivative, pesticide for agricultural and horticultural use containing arylalkyloxy pyrimidine derivative as active ingredient, and use of same” (NIHON NOHYAKU CO., LTD., priority 2012, dated 2017)
